Test [1] has as its target USP7 (mouse (endogenous in primary CD3+ T cells)) (UniProt Q6A4J8). Put plainly: affinity purification with mass spectrometry; proteins bound to USP7 isolated with anti-USP7 antibody from primary carcinoma-infiltrating CD3+ T cells, then mass spectrometry.
The target is the same in test [2]. The test is described as above. This is another data set of the same source.

Protein sequences, listed by entry. Tags and fused reporters are not part of them.
UniProt Q6A4J8: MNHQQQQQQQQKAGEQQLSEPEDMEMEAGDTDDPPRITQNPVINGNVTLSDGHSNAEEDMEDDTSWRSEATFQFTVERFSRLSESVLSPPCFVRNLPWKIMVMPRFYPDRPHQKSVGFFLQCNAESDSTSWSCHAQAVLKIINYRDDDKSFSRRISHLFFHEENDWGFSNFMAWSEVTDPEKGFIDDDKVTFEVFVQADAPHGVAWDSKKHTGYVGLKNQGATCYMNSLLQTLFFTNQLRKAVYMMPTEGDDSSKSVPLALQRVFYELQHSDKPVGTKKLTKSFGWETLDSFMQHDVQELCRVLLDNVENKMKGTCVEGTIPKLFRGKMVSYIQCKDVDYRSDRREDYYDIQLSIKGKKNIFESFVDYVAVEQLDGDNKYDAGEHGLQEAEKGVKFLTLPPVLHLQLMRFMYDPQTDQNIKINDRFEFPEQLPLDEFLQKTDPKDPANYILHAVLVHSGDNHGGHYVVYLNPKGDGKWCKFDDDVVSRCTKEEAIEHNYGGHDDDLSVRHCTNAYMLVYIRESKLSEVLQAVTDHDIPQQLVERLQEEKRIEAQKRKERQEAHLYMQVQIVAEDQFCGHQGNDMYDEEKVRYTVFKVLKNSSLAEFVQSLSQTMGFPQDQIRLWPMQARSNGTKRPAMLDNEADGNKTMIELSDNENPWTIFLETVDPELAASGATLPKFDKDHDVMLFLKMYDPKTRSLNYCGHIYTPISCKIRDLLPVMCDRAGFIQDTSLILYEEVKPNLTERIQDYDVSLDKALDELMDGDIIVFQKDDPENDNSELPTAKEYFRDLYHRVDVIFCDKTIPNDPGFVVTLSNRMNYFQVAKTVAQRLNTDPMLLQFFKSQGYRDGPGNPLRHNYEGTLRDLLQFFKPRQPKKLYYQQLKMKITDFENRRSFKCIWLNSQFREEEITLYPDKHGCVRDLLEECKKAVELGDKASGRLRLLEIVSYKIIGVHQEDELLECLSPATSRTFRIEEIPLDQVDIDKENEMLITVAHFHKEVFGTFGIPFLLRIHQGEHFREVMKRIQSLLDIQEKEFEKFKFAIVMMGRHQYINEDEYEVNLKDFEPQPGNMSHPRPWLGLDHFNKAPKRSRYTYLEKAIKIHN
UniProt P31266: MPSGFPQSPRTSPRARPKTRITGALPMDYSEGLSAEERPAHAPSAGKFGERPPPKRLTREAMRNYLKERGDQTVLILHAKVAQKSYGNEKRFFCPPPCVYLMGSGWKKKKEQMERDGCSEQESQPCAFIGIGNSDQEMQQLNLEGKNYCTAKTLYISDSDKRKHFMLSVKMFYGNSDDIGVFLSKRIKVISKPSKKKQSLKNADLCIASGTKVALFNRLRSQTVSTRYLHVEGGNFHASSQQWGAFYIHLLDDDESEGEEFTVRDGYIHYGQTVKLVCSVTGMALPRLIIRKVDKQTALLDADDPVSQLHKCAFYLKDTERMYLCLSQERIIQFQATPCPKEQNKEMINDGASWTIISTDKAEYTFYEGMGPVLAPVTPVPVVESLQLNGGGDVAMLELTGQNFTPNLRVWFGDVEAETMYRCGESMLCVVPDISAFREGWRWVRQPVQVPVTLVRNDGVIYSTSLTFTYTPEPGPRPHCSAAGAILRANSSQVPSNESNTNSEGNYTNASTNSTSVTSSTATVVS

Read-outs that look alike come from different tables or passages of the source. No constants are given. Whether binding was seen depends on the method and setting. In cells and extracts the contact can be indirect. A yes stands for co-enrichment or nearness to the bait. Other partners may have been found.

RBPJ (from UniProt P31266 1-526): the binding result in test [1] is “binds”.

B1: UFL1 (enzyme, UniProt Q8CCJ3 1-793)
chain: MADAWEEIRRLAADFQRAQFAESTQRLSERNCIEIVNKLISQKQLEVVHTLDGKEYITPAQISKEMRDELHVRGGRVNIVDLQQVINVDLTHIESRVSDIIKSEKHVQMVLGQLIDENYLDQLSEEVNDKLQESGQVTVSELCKAYDLPGDFLTQALTQRLGRIINGHLDLDNRGVIFTEAFVARHKARIRGLFSAITRPTPVNSLVSKYGFQEQLLYSVLEDLVSTGRLRGTVVGGRQDKAVFVPDIYSRTQSTWVDSFFRQNGYLEFDALSRLGIPDAVNYIKKRYKNTQLLFLKATCVGQGLVDQVEASVEEAISSGTWVDISPLLPSSLSVEDAAMLLQQVMRPFGKLASAIVFSDTVVVSEKFITDCTGLFSERMHQKAEKEMKNNPVHLITEEDLKQISILESVNTSKKDKKDERRKKATEGSGSVRGGGGGNAREYKIKKTKKKGRKDEDSDDESQSSHGGKKKPDITFMFQDEIEDCLRKHIQDAPEEFISELAEYLIKPLNKMYLEVVRSVFMSSTSASGTGRKRTIKDLQEEVSNLYNNIRLFEKGMKYFADDTQTALTKHLLKTVCTDITNLMFNFLASDFLMAVEEPAAITSDIRKKILSKLTEETKVALTKLHNSLNEKSIEDFLSCLDSATEACDIMVKKGDKKRERQILFQHRQALCEQLKVTEDPALILHLTAVLLFQLSTHSMLHAPGRCVPQIIAFLHSKIPEDQHTLLVKYQGLVVKQLVSQNKKTGQGEDPSSDELDKEQHDVTNATRKELQELSLSIKDLVLKSRKSSVTEE
With B1, the binding entry in test [2] is listed as “binds”.
